# Measurements as given in article PMC7819943, “Rice protein-binding microarrays: a tool to detect cis-acting elements near promoter regions in rice”.
# By UniProt entry, the sequences of proteins in these tests, tags left out.
# UniProt Q0JBA9, entry or part of it: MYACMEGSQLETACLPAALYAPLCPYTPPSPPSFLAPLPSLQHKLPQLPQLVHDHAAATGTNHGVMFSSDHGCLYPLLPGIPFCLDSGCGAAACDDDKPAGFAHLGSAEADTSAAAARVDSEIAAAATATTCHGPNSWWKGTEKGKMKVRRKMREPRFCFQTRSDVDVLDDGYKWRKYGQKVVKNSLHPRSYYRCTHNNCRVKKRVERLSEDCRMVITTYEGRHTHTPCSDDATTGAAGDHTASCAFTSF
# The list shows a part of the results.
# Target: OsWRKY34 (Oryza sativa, UniProt Q0JBA9 1-250)
# Test: protein-binding microarray (RPBM); PBS, 2% BSA, 51.3 ng/ul salmon testes DNA, 50 uM zinc acetate, 200 nM TF, 25 C, 1 h; high values mean tight binding
# Settings: protein: recombinant; tags: N-terminal polyhistidine and DsRed monomer fusion (pET32a); label: CyDye5-dUTP incorporated in the synthesized complementary strand; 3' TTTTT single-stranded linker to array surface; dsDNA, one strand shown
# Outline: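 Binding signal is reported as fluorescence intensity per feature (arbitrary units) from an Axon 4000B scanner. Incubation used 200 nM of each Ni–NTA-purified, N-terminally polyhistidine- and DsRed-fused transcription factor from E. coli BL21-CodonPlus on a double-stranded custom Agilent array for 1 h at 25 °C, with 50 µM zinc acetate in the buffer, followed by washing.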
row,Sequence,binding signal
1,ACTCTCATGCATATTAGTCATCAAGTTGAATTGGCCCTGACGGAGTCACCTAGTGCAG,10000 fluorescence intensity (a.u.)
2,ATTTCAGTTATTTTCAAATTGTATTCCTACTTGAACTCTTCGGAGTCACCTAGTGCAG,8660 fluorescence intensity (a.u.)
3,CAGACAGCTCGCCCTGCACACACACACACACTCACACTCACGGAGTCACCTAGTGCAG,8290 fluorescence intensity (a.u.)
4,CCATGTCGTGCTCAGCAATTTGTTTCTGCCACCGGCGGCGCGGAGTCACCTAGTGCAG,9490 fluorescence intensity (a.u.)
5,AGCTCCACACTTCATGTGCCAATTATTCATGGTTTCTCAACGGAGTCACCTAGTGCAG,9500 fluorescence intensity (a.u.)
6,ATAGCCCGCTGCTATTCTCTCTTCTTATTTATCTTATTAACGGAGTCACCTAGTGCAG,9000 fluorescence intensity (a.u.)
7,TCTGGACTACCTGAGCGACTTGGTCTCGTCTCCTCGTCTTCGGAGTCACCTAGTGCAG,10200 fluorescence intensity (a.u.)
8,CCTCTCTTTTACCCATTTTTCATTACTATTCTATAACAAACGGAGTCACCTAGTGCAG,8940 fluorescence intensity (a.u.)
9,CGATTCCAGCGCGGTGGGGTGGGCGAGGTGCGTGGCCATGCGGAGTCACCTAGTGCAG,8560 fluorescence intensity (a.u.)
10,ATGCCACCCGTATCTCAATGACATATAGGACCCACATGAGCGGAGTCACCTAGTGCAG,8780 fluorescence intensity (a.u.)
11,TGTTGCCTATTATATTTCGTGCATGGGCTTTCTTTTCTCGCGGAGTCACCTAGTGCAG,15300 fluorescence intensity (a.u.)
12,GGTTATCACTTCCCTTAATCTCTGCTCAGGTTGTTGTTTTCGGAGTCACCTAGTGCAG,8490 fluorescence intensity (a.u.)
13,TATTTCTGACTTGTGATCTGCGAGCGCTGTGAAGGTGGGGCGGAGTCACCTAGTGCAG,10000 fluorescence intensity (a.u.)
14,CATTACATTAGTCTCTTAATATCGGTTATGTCAGGGTTATCGGAGTCACCTAGTGCAG,8440 fluorescence intensity (a.u.)
15,CTTTTCGTTGGCGTGGGTGGGAAGAAGAAGGCGAGACTTGCGGAGTCACCTAGTGCAG,9840 fluorescence intensity (a.u.)
16,ACTCTTTCGGATTTATTACCGCTTGATTGCCACACAAATTCGGAGTCACCTAGTGCAG,10200 fluorescence intensity (a.u.)
17,GTTCAATTCTCGAGTTCTTGCACTATATTGCACCTACCCGCGGAGTCACCTAGTGCAG,10100 fluorescence intensity (a.u.)
18,CCCACCGTTTGCCTACTTTTTATCTCCGTCCTCTTGGATTCGGAGTCACCTAGTGCAG,9560 fluorescence intensity (a.u.)
19,GACAAGTTGAGGGACCTTCGGTGTACTTTTTCCTTTTTCCCGGAGTCACCTAGTGCAG,8420 fluorescence intensity (a.u.)
20,GAGGGAGGAAAGGGAGGTGGGGCCGGCTTGGCAGTGGCTCCGGAGTCACCTAGTGCAG,9630 fluorescence intensity (a.u.)
21,GCCGCTGTTGCCTCTTGCTTCGTTGTCGTCACCGCTGCCGCGGAGTCACCTAGTGCAG,10600 fluorescence intensity (a.u.)

row,Sequence,binding signal
1,TTACCAGAGTTACTCCGTTTTGCTTGTACAGTTTCCGGTTCGGAGTCACCTAGTGCAG,9580 fluorescence intensity (a.u.)
2,CGATGGTACGGATAGATGCTGCTCTGTGTGGTTGAGGTGACGGAGTCACCTAGTGCAG,8170 fluorescence intensity (a.u.)
3,AGTGCGTCGTCGTGTCTTCTCTTTCCTCTATTTTATCACCCGGAGTCACCTAGTGCAG,8060 fluorescence intensity (a.u.)
4,CACGTGTCCCATACGCCGTTTCACACTTTTTTTCTAGACGCGGAGTCACCTAGTGCAG,8670 fluorescence intensity (a.u.)
5,AACTATTTATCCACCACAGTCCATATATAATTGAAATTGCCGGAGTCACCTAGTGCAG,9630 fluorescence intensity (a.u.)
6,CTTCTCATACTATTTTCTTGTTTAACATGCGGAAACCAACCGGAGTCACCTAGTGCAG,8960 fluorescence intensity (a.u.)
7,CCGATTCCCTCCTATATTCTCGTTTCCCGCGGCTCAACCGCGGAGTCACCTAGTGCAG,11800 fluorescence intensity (a.u.)
8,TTATTTTGAGAAGATGCCCTGAACCTGATCAGGGCCGAGTCGGAGTCACCTAGTGCAG,9000 fluorescence intensity (a.u.)
9,TCCTCACGCAATTTCTCGGTTTAAACTTACTCTCCCTTTCCGGAGTCACCTAGTGCAG,11900 fluorescence intensity (a.u.)
10,CAACACGTATAGCCTTTTCGAACATTATTCCTTTTTTTTCCGGAGTCACCTAGTGCAG,12300 fluorescence intensity (a.u.)
11,GTTTGCTTCTGTTTCTTTGGAACCAAATATTCTTGCCATACGGAGTCACCTAGTGCAG,8850 fluorescence intensity (a.u.)
12,TCGTTCATTTTAGGTCCCTCGGTGGTTTTGACCCCAGTTTCGGAGTCACCTAGTGCAG,12500 fluorescence intensity (a.u.)
13,CACCCTGTCTCACTGTCGCCCCACTTTGACCACCGCCGCCCGGAGTCACCTAGTGCAG,10400 fluorescence intensity (a.u.)
14,ACATTAGGTTGGAGTGGATTATTTTTTTCTATTCTTTTCCCGGAGTCACCTAGTGCAG,12000 fluorescence intensity (a.u.)
15,TACTGTAGCATCATTGTAGCGTATAGCCGCGCCCCTATCGCGGAGTCACCTAGTGCAG,8300 fluorescence intensity (a.u.)
16,ACTAATCGATTTGGACAGTTTGCATCGTAATCTCCACGGCCGGAGTCACCTAGTGCAG,8210 fluorescence intensity (a.u.)
17,TGGTCACTGACCCCAGGTCGATCTCTCTCGTCTTCGTTTTCGGAGTCACCTAGTGCAG,9710 fluorescence intensity (a.u.)
18,TCGCCTCGTAACCGCCTGATTAATCCTCCGCTCCTGCAAGCGGAGTCACCTAGTGCAG,9510 fluorescence intensity (a.u.)
19,ATGCCATGAAAATAATCATATTATCATATATGCGTCCAATCGGAGTCACCTAGTGCAG,8220 fluorescence intensity (a.u.)
20,CGCCGCCTCGGCATCCGCGCCCACTCGTCGCCGCCTCGCCCGGAGTCACCTAGTGCAG,11000 fluorescence intensity (a.u.)
21,GGCTGCTATTATATACTCTCTCTCCATCCACAAAAGTTACCGGAGTCACCTAGTGCAG,8580 fluorescence intensity (a.u.)

# Quoted at random: 3 entries already listed.
row,Sequence,binding signal
19,ATGCCATGAAAATAATCATATTATCATATATGCGTCCAATCGGAGTCACCTAGTGCAG,8220 fluorescence intensity (a.u.)
16,ACTAATCGATTTGGACAGTTTGCATCGTAATCTCCACGGCCGGAGTCACCTAGTGCAG,8210 fluorescence intensity (a.u.)
12,TCGTTCATTTTAGGTCCCTCGGTGGTTTTGACCCCAGTTTCGGAGTCACCTAGTGCAG,12500 fluorescence intensity (a.u.)
